# Experimental data published in PubChem BioAssay AID504834 (National Center for Advancing Translational Sciences (NCATS), 2011).
# Screen size: about 320,000 compounds; about 22,000 (6.9%) were called active. The shares of active, inactive and inconclusive entries below differ from those in the screen. Calls follow the shape of the dose curve; as a rule, active = well fitted inhibition curve with a large enough effect; inconclusive = small, poorly fitted or top-dose-only effect, or another doubt; inactive = no such curve, though single readings can be large or run the other way. Potencies of inconclusive entries are doubtful fits and often do not repeat.
# Experiment: Primary qHTS for delayed death inhibitors of the malarial parasite plastid, 96 hour incubation
# Conditions: P. falciparum luciferase reporter growth; series mostly up to 28.7 µM
# In short: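 Two-generation exposure (96 h) targets delayed-death phenotype. Reporter parasites carrying integrated firefly luciferase, in red cells at 2% hematocrit and 0.05% parasitemia final, kept at 37 C, 5% CO2; luminescence loss indicates inhibition.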
# Potency is read from the fitted curve at half-maximal effect.
row,SMILES,Potency
1,O=C(CN1C(=O)NC2(CCCCC2)C1=O)Nc1ccc2c(c1)OCCCO2,inactive
2,O=C(NC1CCCCC1)N(Cc1ccccc1)Cc1ccco1,"inconclusive: 0.0415 µM [inhibitor, full curve, poor fit]"
3,Cc1ccc(S(=O)(=O)N(CC(O)CN2CCCCC2)c2cccc([N+](=O)[O-])c2)cc1 (stereo unspecified),"inconclusive: 10.4 µM [inhibitor, partial curve]"
4,CCN(CC)S(=O)(=O)c1ccc(N2CC(C(=O)NCCc3c[nH]c4ccccc34)CC2=O)cc1 (stereo unspecified),"inconclusive: 9.28 µM [inhibitor, partial curve]"
5,COc1cccc(OC)c1OCCCN1CCC(Cc2ccccc2)CC1,"inconclusive: 0.586 µM [inhibitor, partial curve, poor fit]"
6,O=C(NNC(=S)Nc1cccc(Cl)c1)c1ccccc1,"inconclusive: 18.5 µM [inhibitor, single point]"
7,CC(C)c1c(C(=O)N/N=C/c2cccc(OCc3ccccc3)c2)nnn1-c1nonc1N,"inconclusive: 18.5 µM [inhibitor, single point]"
8,Cc1ccc(C)c(NS(=O)(=O)c2cc(C(=O)Nc3ccccc3-c3ccccc3)ccc2C)c1,"inconclusive: 13.1 µM [inhibitor, single point]"
9,COc1ccc(S(=O)(=O)Nc2ccccc2-c2nc3ccccc3[nH]c2=O)cc1,inactive
10,COc1cc2[nH]c(=O)n(CCCCCC(=O)NCCCN3CCCC3=O)c(=O)c2cc1OC,"inconclusive: 18.5 µM [inhibitor, partial curve, poor fit]"
11,CCOc1ccc(NC(=O)C2CCC(CNc3c(N4CCC(C)CC4)c(=O)c3=O)CC2)cc1 (stereo unspecified),active: 2.33 µM
12,CCCn1c(=O)[nH]c(=O)c2c(C(F)(F)F)cc(-c3ccc(C)cc3)nc21,active: 2.62 µM
13,CCOc1ccc(C(C(=O)NCCOC)N(CCOC)C(=O)CCC(=O)Nc2ccccn2)cc1 (stereo unspecified),"inconclusive: 0.928 µM [inhibitor, partial curve, poor fit]"
14,COc1ccccc1Cn1cccc1C=O,"inconclusive: 10.4 µM [inhibitor, partial curve]"
15,O=C(CN(CCc1ccccc1)C(=O)CNS(=O)(=O)c1ccc(F)cc1)NCC1CCCO1 (stereo unspecified),"inconclusive: 11.7 µM [inhibitor, single point]"
16,CCOc1ccc(N(CC(=O)N/N=C(\C)c2cccc(NC(C)=O)c2)S(=O)(=O)c2ccccc2)cc1,inactive
17,COc1ccc(CC(C)N2CCN(c3cccc(C(F)(F)F)c3)CC2)cc1OC (stereo unspecified),"inconclusive: 10.4 µM [inhibitor, partial curve, poor fit]"
18,O=S(=O)(NCCOc1ccccc1F)c1cccc(Br)c1,inactive
19,CCCCCCN(C(=O)CCCCCN1C(=O)NC(c2ccc(Cl)cc2)C(C(=O)OCc2ccccc2)=C1C)C(C(=O)NCCCC)c1ccc(OCC(=O)OC)c(C(=O)OC)c1 (stereo unspecified),"inconclusive: 13.1 µM [inhibitor, single point]"
20,C/C=C/COC(=O)c1[nH]c2c(c1C)C(=O)CC(c1ccco1)C2 (stereo unspecified),inactive
21,COC(=O)Cn1cnc2c(nnn2-c2ccc(F)cc2)c1=O,inactive

# 2 entries drawn at random from those above, as already listed:
row,SMILES,Potency
8,Cc1ccc(C)c(NS(=O)(=O)c2cc(C(=O)Nc3ccccc3-c3ccccc3)ccc2C)c1,"inconclusive: 13.1 µM [inhibitor, single point]"
21,COC(=O)Cn1cnc2c(nnn2-c2ccc(F)cc2)c1=O,inactive

# (further entries)

row,SMILES,Potency
1,O=C(CSc1oc(-c2ccco2)nc1S(=O)(=O)c1ccc(F)cc1)NCC1CCCO1 (stereo unspecified),"inconclusive: 14.7 µM [inhibitor, partial curve, poor fit]"
2,Cc1cc(Br)cc(Cl)c1OCC(=O)N1CCN(C(=O)c2ccco2)CC1,"inconclusive: 10.4 µM [inhibitor, partial curve, poor fit]"
3,O=C(CSCc1cccc(Br)c1)N1CCOCC1,inactive
4,Cc1ccc(NC(=O)CS(=O)CC(=O)NC2CCN(Cc3ccccc3)CC2)c(C)c1 (stereo unspecified),"inconclusive: 1.65 µM [inhibitor, partial curve, poor fit]"
5,CCCCc1nc(N2CCNCC2)c(C#N)c2c1CSC(C)(C)C2,"inconclusive: 14.7 µM [inhibitor, single point]"
6,c1ccc2[nH]c(N3CCOCC3)nc2c1,inactive
7,Nc1nonc1-n1nnc(C(=O)N/N=C/c2cccnc2)c1-c1cccs1,"inconclusive: 11.7 µM [inhibitor, single point]"
8,Cc1cccc(NC(=O)CCc2nnc3ccc(NCc4ccco4)nn23)n1,"inconclusive: 18.5 µM [inhibitor, single point]"
9,CCN(CC)c1ccc(/C=C/c2ccc3ccc(OC)cc3[n+]2CC)cc1,inactive
10,COc1ccc(CCn2c(C)cc(C(=O)COC(=O)c3ccc(NC(=O)CC#N)cc3)c2C)cc1,"inconclusive: 5.22 µM [inhibitor, partial curve]"
11,COc1ccccc1N(C(=O)c1ccco1)C(C(=O)NC1CCCC1)c1ccncc1 (stereo unspecified),inactive
12,Cc1ccc(F)c([C@H]2C3C=CCC(c4ccccc4)C3C(=O)N2Cc2ccccc2)c1 (stereo partly specified),"inconclusive: 18.5 µM [inhibitor, single point]"
13,COc1ccc(NS(=O)(=O)c2ccc(C)c(C(=O)NNC(=O)c3csc(N4CCOCC4)n3)c2)cc1,inactive
14,Cc1[nH]n(-c2ccccc2)c(=O)c1Sc1ccc(Cl)cc1,"inconclusive: 0.0657 µM [inhibitor, full curve, poor fit]"
15,C=CCNC(=O)c1csc(-c2ccccc2)n1,"inconclusive: 0.738 µM [inhibitor, full curve, poor fit]"
16,c1ccc(Cn2nnc3ccccc32)cc1,"inconclusive: 4.15 µM [inhibitor, single point]"
17,COc1ccc(NC(=O)C2CCCN(C(=O)c3ccc(Cl)cc3)C2)cc1S(=O)(=O)N(C)C (stereo unspecified),"inconclusive: 13.1 µM [inhibitor, single point]"
18,Clc1ccc(NCc2cccnc2)c(Cl)c1,"inconclusive: 9.28 µM [inhibitor, single point]"
19,CCC(=O)Nc1cccc(C2=NOC3(C2)C[C@@H](C(N)=O)N(C(=O)CC(c2ccccc2)c2ccccc2)C3)c1 (stereo partly specified),"inconclusive: 13.1 µM [inhibitor, single point]"
20,Cc1cc(NC(=O)CCC(=O)N(c2ccccc2)C(C(=O)NC2CCCC2)c2ccncc2)no1 (stereo unspecified),"inconclusive: 0.0029 µM [inhibitor, full curve, poor fit]"
